These are yes or no findings as the source states them, for the method shown. Some results given as binding are weak or reduced against the parent protein; the word gives no strength.
Target: Rhodamine-tagged mouse full-length ISG15 propargylamide probe (mouse) (UniProt Q64339)
Experiment: activity-based probe labelling

By UniProt entry, the sequences of proteins in these tests, tags left out. Residues count along the entry.
UniProt Q64339, residues 1-155: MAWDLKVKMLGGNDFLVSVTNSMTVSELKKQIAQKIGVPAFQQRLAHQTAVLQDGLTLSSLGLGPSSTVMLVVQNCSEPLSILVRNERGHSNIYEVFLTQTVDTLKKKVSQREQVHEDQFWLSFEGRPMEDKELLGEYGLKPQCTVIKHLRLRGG
UniProt Q9Y5T5, residues 196-823: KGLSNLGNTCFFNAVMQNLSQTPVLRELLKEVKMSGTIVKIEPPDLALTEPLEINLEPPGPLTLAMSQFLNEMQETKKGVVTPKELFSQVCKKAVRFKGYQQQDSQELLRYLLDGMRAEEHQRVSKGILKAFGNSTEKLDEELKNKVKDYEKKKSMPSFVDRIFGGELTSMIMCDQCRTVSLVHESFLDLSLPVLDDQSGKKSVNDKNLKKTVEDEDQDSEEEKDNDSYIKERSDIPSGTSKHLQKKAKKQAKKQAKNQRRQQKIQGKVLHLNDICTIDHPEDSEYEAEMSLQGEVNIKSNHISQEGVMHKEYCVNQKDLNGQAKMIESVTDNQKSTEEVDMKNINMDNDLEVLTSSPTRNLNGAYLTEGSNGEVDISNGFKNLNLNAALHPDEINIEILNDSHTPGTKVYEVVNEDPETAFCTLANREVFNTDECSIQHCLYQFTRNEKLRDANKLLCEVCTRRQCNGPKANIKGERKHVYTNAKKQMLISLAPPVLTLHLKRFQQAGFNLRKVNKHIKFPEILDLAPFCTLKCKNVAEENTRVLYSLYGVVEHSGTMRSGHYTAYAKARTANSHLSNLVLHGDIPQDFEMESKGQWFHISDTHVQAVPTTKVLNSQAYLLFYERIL

For “recombinant human USP16 catalytic domain (CD; aa 196-823) (from UniProt Q9Y5T5 196-823) (domain or fragment)”, the binding was “binds”.

— paper doi:10.1101/2023.06.26.546496
